The target of this assay is flag-HA-tagged SMAD3 (UniProt P84022). Kind of assay: co-IP; Hela cells cotransfected with flag-HA-tagged SMAD3 or SMAD4 and HA-tagged CSRP2BP; lysate incubated with anti-flag antibody (or control normal IgG) at 4 °C for 2 h, precipitated with protein A/G; Western blotting with anti-HA antibody.

Sequences of proteins named here, by UniProt entry; tags and fusion partners are left off.
UniProt P84022: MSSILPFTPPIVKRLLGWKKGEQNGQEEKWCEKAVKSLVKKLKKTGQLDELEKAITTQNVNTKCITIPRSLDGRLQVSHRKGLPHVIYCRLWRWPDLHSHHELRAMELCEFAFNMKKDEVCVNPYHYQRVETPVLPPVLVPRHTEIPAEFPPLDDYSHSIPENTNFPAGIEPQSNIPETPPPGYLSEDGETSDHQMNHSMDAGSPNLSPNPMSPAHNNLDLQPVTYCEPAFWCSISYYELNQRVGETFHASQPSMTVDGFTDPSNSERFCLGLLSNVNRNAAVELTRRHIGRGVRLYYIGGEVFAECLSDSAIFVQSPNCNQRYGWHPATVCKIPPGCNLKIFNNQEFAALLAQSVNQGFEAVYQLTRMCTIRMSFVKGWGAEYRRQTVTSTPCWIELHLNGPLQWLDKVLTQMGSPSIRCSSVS

These are yes or no findings as the source states them, for the method shown. In cells and extracts the contact can be indirect. Where a sequence is shown, tags or fusion partners need not be part of it.

B1: HA-tagged CSRP2BP (protein, UniProt Q9H8E8 1-782)
chain: MDSSIHLSSLISRHDDEATRTSTSEGLEEGEVEGETLLIVESEDQASVDLSHDQSGDSLNSDEGDVSWMEEQLSYFCDKCQKWIPASQLREQLSYLKGDNFFRFTCSDCSADGKEQYERLKLTWQQVVMLAMYNLSLEGSGRQGYFRWKEDICAFIEKHWTFLLGNRKKTSTWWSTVAGCLSVGSPMYFRSGAQEFGEPGWWKLVHNKPPTMKPEGEKLSASTLKIKAASKPTLDPIITVEGLRKRASRNPVESAMELKEKRSRTQEAKDIRRAQKEAAGFLDRSTSSTPVKFISRGRRPDVILEKGEVIDFSSLSSSDRTPLTSPSPSPSLDFSAPGTPASHSATPSLLSEADLIPDVMPPQALFHDDDEMEGDGVIDPGMEYVPPPAGSVASGPVVGVRKKVRGPEQIKQEVESEEEKPDRMDIDSEDTDSNTSLQTRAREKRKPQLEKDTKPKEPRYTPVSIYEEKLLLKRLEACPGAVAMTPEARRLKRKLIVRQAKRDRGLPLFDLDQVVNAALLLVDGIYGAKEGGISRLPAGQATYRTTCQDFRILDRYQTSLPSRKGFRHQTTKFLYRLVGSEDMAVDQSIVSPYTSRILKPYIRRDYETKPPKLQLLSQIRSHLHRSDPHWTPEPDAPLDYCYVRPNHIPTINSMCQEFFWPGIDLSECLQYPDFSVVVLYKKVIIAFGFMVPDVKYNEAYISFLFVHPEWRRAGIATFMIYHLIQTCMGKDVTLHVSASNPAMLLYQKFGFKTEEYVLDFYDKYYPLESTECKHAFFLRLRR
As for B1, the binding result is “no binding”.

These data come from PMC10580587.
